From PMC9166816
These are yes or no findings as the source states them, for the method shown. In cells and extracts the contact can be indirect. Here binding means that the protein was enriched with, or labelled near, the bait; the list need not be complete. Where a sequence is shown, tags or fusion partners need not be part of it.

Sequences of proteins named here, by UniProt entry; tags and fusion partners are left off.
UniProt Q9ULM6: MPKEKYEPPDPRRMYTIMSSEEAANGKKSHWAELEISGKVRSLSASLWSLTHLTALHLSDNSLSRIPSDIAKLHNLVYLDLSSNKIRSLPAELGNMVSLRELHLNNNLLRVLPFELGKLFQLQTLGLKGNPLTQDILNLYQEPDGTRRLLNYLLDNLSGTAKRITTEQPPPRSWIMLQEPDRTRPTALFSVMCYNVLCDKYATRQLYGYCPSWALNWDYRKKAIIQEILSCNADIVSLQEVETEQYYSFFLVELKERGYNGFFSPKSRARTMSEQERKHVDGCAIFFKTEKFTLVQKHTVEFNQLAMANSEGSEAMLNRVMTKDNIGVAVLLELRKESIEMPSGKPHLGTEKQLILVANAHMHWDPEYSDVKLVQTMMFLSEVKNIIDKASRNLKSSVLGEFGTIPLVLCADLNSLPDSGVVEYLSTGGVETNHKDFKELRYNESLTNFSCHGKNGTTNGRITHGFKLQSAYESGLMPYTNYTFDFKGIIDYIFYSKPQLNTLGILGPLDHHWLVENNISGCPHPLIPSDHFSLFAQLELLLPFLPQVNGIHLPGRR
UniProt Q9UIV1: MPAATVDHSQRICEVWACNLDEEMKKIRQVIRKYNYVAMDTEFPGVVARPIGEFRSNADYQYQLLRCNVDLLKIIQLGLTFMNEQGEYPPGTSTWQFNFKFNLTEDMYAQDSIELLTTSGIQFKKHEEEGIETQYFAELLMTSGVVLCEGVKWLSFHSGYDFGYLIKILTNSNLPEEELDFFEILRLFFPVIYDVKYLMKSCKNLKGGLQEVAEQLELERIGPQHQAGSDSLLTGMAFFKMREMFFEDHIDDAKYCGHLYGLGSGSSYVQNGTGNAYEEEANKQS
UniProt Q9UFF9: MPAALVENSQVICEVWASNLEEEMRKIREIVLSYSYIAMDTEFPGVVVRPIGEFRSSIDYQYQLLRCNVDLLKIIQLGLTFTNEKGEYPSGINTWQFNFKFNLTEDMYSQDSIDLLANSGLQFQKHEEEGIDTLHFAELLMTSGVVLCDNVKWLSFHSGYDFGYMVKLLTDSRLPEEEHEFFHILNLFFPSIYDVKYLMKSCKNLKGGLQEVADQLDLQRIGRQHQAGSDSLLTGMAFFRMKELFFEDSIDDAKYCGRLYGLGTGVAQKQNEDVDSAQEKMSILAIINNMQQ

What follows are substances tested against T1, FLAG and HA-tagged RNF219 (FHA-RNF219), stably expressed in HeLa S3 cells (human) (UniProt Q5W0B1) (assay: affinity purification with mass spectrometry; two-step FLAG and HA affinity chromatography from Dignam S100 cytoplasmic extracts of HeLa S3 cells stably expressing FHA-RNF219; bands of SDS-PAGE analysed by tandem mass spectrometry; non-transduced HeLa S3 as mock).
T1 sequence: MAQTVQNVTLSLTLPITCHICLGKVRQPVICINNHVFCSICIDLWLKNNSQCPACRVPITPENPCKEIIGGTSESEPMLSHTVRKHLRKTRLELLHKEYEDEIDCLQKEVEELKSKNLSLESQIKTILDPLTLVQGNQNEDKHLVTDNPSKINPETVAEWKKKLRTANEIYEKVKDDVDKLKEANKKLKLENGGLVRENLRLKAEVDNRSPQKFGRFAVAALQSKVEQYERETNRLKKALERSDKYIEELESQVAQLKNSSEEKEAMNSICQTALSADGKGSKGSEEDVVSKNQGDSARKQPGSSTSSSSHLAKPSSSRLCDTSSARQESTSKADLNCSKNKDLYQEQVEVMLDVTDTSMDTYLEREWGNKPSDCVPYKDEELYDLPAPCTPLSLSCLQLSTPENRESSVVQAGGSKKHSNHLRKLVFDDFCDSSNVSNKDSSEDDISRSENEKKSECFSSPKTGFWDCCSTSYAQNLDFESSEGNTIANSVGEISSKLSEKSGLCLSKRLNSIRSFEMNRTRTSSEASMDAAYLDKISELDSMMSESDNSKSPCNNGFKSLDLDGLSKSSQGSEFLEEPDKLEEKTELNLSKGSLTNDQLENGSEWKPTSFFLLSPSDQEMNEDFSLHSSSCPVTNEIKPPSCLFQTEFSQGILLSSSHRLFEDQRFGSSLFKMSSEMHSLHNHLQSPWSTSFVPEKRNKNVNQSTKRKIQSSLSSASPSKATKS

| Substance | binding |
| --- | --- |
| CNOT6 (CCR4a), CCR4-NOT deadenylase subunit (from UniProt Q9ULM6 1-557) | binds |
| CNOT7 (CAF1A), CCR4-NOT deadenylase subunit (from UniProt Q9UIV1 1-285) | binds |
| CNOT8 (CAF1B), CCR4-NOT deadenylase subunit (from UniProt Q9UFF9 1-292) | binds |
